Common to all, as to assay: glycan array binding signal (z-score within array); higher = stronger binding
Details in all cases: glycan notation: IUPAC condensed, linker removed

Experiment [1] deals with Gal(b1-4)GlcNAc(b1-2)Man(a1-6)[Man(a1-3)]Man(b1-4)GlcNAc(b1-4)GlcNAc. Put shortly: (§1)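 Glycan array data were curated from 3228 arrays in the Consortium for Functional Glycomics database and kept only where the protein sequence was available. Glycan names were converted to IUPAC-condensed notation, and columns mapping to the same glycan were averaged. The binding signal is a within-array Z-score, averaged across arrays of the same protein sequence at different concentrations or buffers and across linkers. Negative Z-scores can be read as non-binding.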

The target in experiment [2] is Gal(b1-4)GlcNAc(b1-2)[Gal(b1-4)GlcNAc(b1-4)]Man(a1-3)[Gal(b1-4)GlcNAc(b1-2)Man(a1-6)]Man(b1-4)GlcNAc(b1-4)GlcNAc. Put shortly:
as §1

Experiment [3] concerns the target Gal(b1-4)GlcNAc(b1-2)[Gal(b1-4)GlcNAc(b1-4)]Man(a1-3)[Gal(b1-4)GlcNAc(b1-2)[Gal(b1-4)GlcNAc(b1-6)]Man(a1-6)]Man(b1-4)GlcNAc(b1-4)GlcNAc. Put shortly: as §1
The target in experiment [4] is Gal(b1-4)GlcNAc(b1-2)[Gal(b1-4)GlcNAc(b1-4)]Man(a1-3)[GlcNAc(b1-4)][Gal(b1-4)GlcNAc(b1-2)Man(a1-6)]Man(b1-4)GlcNAc(b1-4)GlcNAc. In outline: as §1
In experiment [5] the target is Gal(b1-4)GlcNAc(b1-2)[Gal(b1-4)GlcNAc(b1-4)]Man(a1-3)[GlcNAc(b1-4)][Gal(b1-4)GlcNAc(b1-2)[Gal(b1-4)GlcNAc(b1-6)]Man(a1-6)]Man(b1-4)GlcNAc(b1-4)GlcNAc. Put shortly:
as §1

In experiment [6] the target is Gal(b1-4)GlcNAc(b1-2)[Gal(b1-4)GlcNAc(b1-6)]Man(a1-6)[Gal(b1-4)GlcNAc(b1-2)Man(a1-3)]Man(b1-4)GlcNAc(b1-4)GlcNAc. Put shortly: as §1
The target in experiment [7] is Gal(b1-4)GlcNAc(b1-2)[Gal(b1-4)GlcNAc(b1-6)]Man(a1-6)[Gal(b1-4)GlcNAc(b1-2)Man(a1-3)]Man(b1-4)GlcNAc(b1-4)[Fuc(a1-6)]GlcNAc. Put shortly:
as §1

Experiment [8] deals with Gal(b1-4)GlcNAc(b1-2)[Gal(b1-4)GlcNAc(b1-6)]Man(a1-6)[GlcNAc(b1-4)][Gal(b1-4)GlcNAc(b1-2)Man(a1-3)]Man(b1-4)GlcNAc(b1-4)GlcNAc. In outline:
as §1

The target of experiment [9] is Gal(b1-4)GlcNAc(b1-2)[Gal(b1-4)GlcNAc(b1-6)]Man(a1-6)[GlcNAc(b1-4)][Gal(b1-4)GlcNAc(b1-2)[Gal(b1-4)GlcNAc(b1-4)]Man(a1-3)]Man(b1-4)GlcNAc(b1-4)[Fuc(a1-6)]GlcNAc. Put shortly: as §1
Experiment [10] has as its target Gal(b1-4)GlcNAc(b1-3)Gal(b1-3)GalNAc. In outline:
as §1

Experiment [11] deals with Gal(b1-4)GlcNAc(b1-3)Gal(b1-3)GlcNAc. In outline: as §1
Experiment [12] addresses Gal(b1-4)GlcNAc(b1-3)Gal(b1-4)Glc. Put shortly: as §1
Experiment [13] addresses Gal(b1-4)GlcNAc(b1-3)Gal(b1-4)GlcNAc. In outline: as §1
In experiment [14] the target is Gal(b1-4)GlcNAc(b1-3)Gal(b1-4)GlcNAc(b1-2)Man(a1-3)[Gal(b1-4)GlcNAc(b1-3)Gal(b1-4)GlcNAc(b1-2)Man(a1-6)]Man(b1-4)GlcNAc(b1-4)GlcNAc. Put shortly:
as §1

In experiment [15] the target is Gal(b1-4)GlcNAc(b1-3)Gal(b1-4)GlcNAc(b1-2)Man(a1-3)[Gal(b1-4)GlcNAc(b1-3)Gal(b1-4)GlcNAc(b1-2)Man(a1-6)]Man(b1-4)GlcNAc(b1-4)[Fuc(a1-6)]GlcNAc. In outline:
as §1

For experiment [16], the target named is Gal(b1-4)GlcNAc(b1-3)Gal(b1-4)GlcNAc(b1-2)[Gal(b1-4)GlcNAc(b1-3)Gal(b1-4)GlcNAc(b1-6)]Man(a1-6)[Gal(b1-4)GlcNAc(b1-3)Gal(b1-4)GlcNAc(b1-2)Man(a1-3)]Man(b1-4)GlcNAc(b1-4)GlcNAc. Put shortly: as §1
In experiment [17] the target is Gal(b1-4)GlcNAc(b1-3)Gal(b1-4)GlcNAc(b1-2)[Gal(b1-4)GlcNAc(b1-3)Gal(b1-4)GlcNAc(b1-6)]Man(a1-6)[Gal(b1-4)GlcNAc(b1-3)Gal(b1-4)GlcNAc(b1-2)Man(a1-3)]Man(b1-4)GlcNAc(b1-4)[Fuc(a1-6)]GlcNAc. In outline:
as §1

Experiment [18] concerns the target Gal(b1-4)GlcNAc(b1-3)Gal(b1-4)GlcNAc(b1-3)Gal(b1-4)GlcNAc. In outline:
as §1

Experiment [19] addresses Gal(b1-4)GlcNAc(b1-3)Gal(b1-4)GlcNAc(b1-3)Gal(b1-4)GlcNAc(b1-2)Man(a1-3)[Gal(b1-4)GlcNAc(b1-3)Gal(b1-4)GlcNAc(b1-3)Gal(b1-4)GlcNAc(b1-2)Man(a1-6)]Man(b1-4)GlcNAc(b1-4)GlcNAc. In outline: as §1
Experiment [20] deals with Gal(b1-4)GlcNAc(b1-3)Gal(b1-4)GlcNAc(b1-3)Gal(b1-4)GlcNAc(b1-2)Man(a1-3)[Gal(b1-4)GlcNAc(b1-3)Gal(b1-4)GlcNAc(b1-3)Gal(b1-4)GlcNAc(b1-2)Man(a1-6)]Man(b1-4)GlcNAc(b1-4)[Fuc(a1-6)]GlcNAc. In outline: as §1
Experiment [21] concerns the target Gal(b1-4)GlcNAc(b1-3)Gal(b1-4)GlcNAc(b1-3)Gal(b1-4)GlcNAc(b1-2)[Gal(b1-4)GlcNAc(b1-3)Gal(b1-4)GlcNAc(b1-3)Gal(b1-4)GlcNAc(b1-6)]Man(a1-6)[Gal(b1-4)GlcNAc(b1-3)Gal(b1-4)GlcNAc(b1-3)Gal(b1-4)GlcNAc(b1-2)Man(a1-3)]Man(b1-4)GlcNAc(b1-4)[Fuc(a1-6)]GlcNAc. Put shortly:
as §1

Experiment [22] deals with Gal(b1-4)GlcNAc(b1-3)Gal(b1-4)GlcNAc(b1-3)Gal(b1-4)GlcNAc(b1-3)Gal(b1-4)GlcNAc(b1-2)Man(a1-3)[Gal(b1-4)GlcNAc(b1-3)Gal(b1-4)GlcNAc(b1-3)Gal(b1-4)GlcNAc(b1-3)Gal(b1-4)GlcNAc(b1-2)Man(a1-6)]Man(b1-4)GlcNAc(b1-4)GlcNAc. In outline:
as §1

The other results are listed elsewhere or left out.

B1: Pwp1 (Candida glabrata) (protein)
chain: MGSSHHHHHHSSGLVPRGSHMASANPISITNVCQFPDNWARTAGFQATTVRLGLTIASNTYKELLNYPGLFNFATQKATVTQPNFSISGFPFFTGLYGLTVWPINLLVELQGYFVPPESGNYTFTLQGSDDAAILFFANPSTFACGSQNDWPQPREADITVTDTLVPSRTLYLVKGVAYPIRIAYYNGSGDGKLNVSFKDPSGTTHTDWKGYVWQYSNTCSTCTYT
As for B1, the “glycan array binding signal (z-score)” value in [1] was 0.109; in experiment [2] it was -0.345; in experiment [3], 0.571; in [4], 0.295; in [5], -1.58; in experiment [6], 0.454. Besides, the “glycan array binding signal (z-score)” value in experiment [7] is 0.645; in [8] it was 0.195; in [9] it was 0.531; in [10], -0.625; in experiment [11], 0.776; in experiment [12], 0.661. Moreover, the “glycan array binding signal (z-score)” value in experiment [13] is 0.361; in experiment [14] it was 0.746; in experiment [15], -1.03; in experiment [16] it was -1.74; in experiment [17], 1.04; in experiment [18], 0.236. Also, the “glycan array binding signal (z-score)” value in [19] was -0.538; in [20], -0.444; in [21] it was -0.784; in [22], -3.09.
